Assay results as given in paper PMC4424349.

B1: Myosin B (MyoB), endogenous untagged (protein, UniProt Q8I465 1-801)
chain: MVNKINELNNYFRINSTFINKSENESENFYVWTYKSPNVDLYPDLVFFKCQVLNINGDNYEVKEISPETNSVYTVKKEHLFNCNNMVNINSHRLNDMVHQNSAEVLNTLALRYEKNYIYTIAEPMLISVNPYQVIDTDMNEYKNKSTDLLPPHVYTYAKDAMLDFINTKNSQSIIISGESGSGKTEASKLVIKFYLSGVREDNDISKTLWDSNFILEAFGNAKTVKNNNSSRYGKYIKIQLDENQNIVSSSIEIFLLEKIRVVSQEPDERCYHIFYEILKGMNDEMKKKYKIKSEEDYKYISNKSINIPEIDDAKDFENLMISFDKMKMSDLKDDLFLTLSGLLLLGNIQFNGIEKGGKSNCSELDDENLEVVNEASELLGIDYESLKNSLVITEKSIANQKIEIPLSIEESLSICRSISKDIYNKIFEYITKRINNFLNNNKELENFIGILDIFGFEIFVKNSLEQLLINIANEEIHNIYLFVVYEKESNLYKKEGIIIESVKYTNNESIIDLLRGKTSIISILEDNCLAPGKKDESIVSVYTNKFSKNEHYSVCKKNITESFVIKHTVSDVTYSISNFISKNKDILSPNILKLLKVSNNKLIQNLYDDAEVTDSLGRKNLITYKYLENLKKICSYLKSTNIYFIKCIKPNETKEKNNFNPKKVYPQLFSLSIVETLNIKYFFQYKYTFASFLSYYQYLDIAVSNDSSLDEKTKVTMLLERNFDKDSYKVGHTMVFLKKEAVHKIRDIINSNLKCYRNLCCITSALIMKIKKKRIVEENIKNLQLAQAYFRKYKYIKEHE
B2: myosin A tail domain-interacting protein (MTIP), Q8I4W8 1-204 (protein)
chain: MKQECNVCYFNLPDPESTLGPYDNELNYFTWGPGFEYEPEPQRKPLSIEESFENSEESEESVADIQQLEEKVDESDVRIYFNEKSSGGKISIDNASYNARKLGLAPSSIDEKKIKELYGDNLTYEQYLEYLSICVHDKDNVEELIKMFAHFDNNCTGYLTKSQMKNILTTWGDALTDQEAIDALNAFSSEDNIDYKLFCEDILQ

Assays:
[1] = target: T1, PfMLC-B-GFP (P. falciparum myosin light chain B with C-terminal GFP) (Plasmodium falciparum 3D7) (UniProt Q8III1); assay: affinity purification with mass spectrometry; GFP-Trap immunoprecipitates of schizont lysates, SDS-PAGE, trypsin digestion, LC-MS/MS; proteins with three or more peptides and absent from the 3D7 control
T1 sequence: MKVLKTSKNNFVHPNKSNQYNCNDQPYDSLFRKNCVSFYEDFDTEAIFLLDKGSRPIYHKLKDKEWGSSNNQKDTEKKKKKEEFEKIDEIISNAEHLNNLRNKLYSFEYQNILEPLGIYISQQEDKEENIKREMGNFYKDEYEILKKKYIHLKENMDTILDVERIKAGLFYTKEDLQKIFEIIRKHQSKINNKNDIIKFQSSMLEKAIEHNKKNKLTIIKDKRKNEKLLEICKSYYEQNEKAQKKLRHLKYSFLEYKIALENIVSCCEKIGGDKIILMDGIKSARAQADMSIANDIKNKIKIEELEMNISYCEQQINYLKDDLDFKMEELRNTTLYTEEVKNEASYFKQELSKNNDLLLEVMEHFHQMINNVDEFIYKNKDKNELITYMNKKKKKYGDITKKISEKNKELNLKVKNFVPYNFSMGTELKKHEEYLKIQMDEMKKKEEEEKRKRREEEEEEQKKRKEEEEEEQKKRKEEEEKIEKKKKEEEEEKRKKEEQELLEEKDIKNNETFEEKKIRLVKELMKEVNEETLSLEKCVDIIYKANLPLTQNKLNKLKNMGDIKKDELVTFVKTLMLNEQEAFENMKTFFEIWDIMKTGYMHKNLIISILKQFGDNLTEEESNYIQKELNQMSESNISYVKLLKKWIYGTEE

[2] = target: T2, PfMyoB-GFP (Plasmodium falciparum myosin B with C-terminal GFP) (Plasmodium falciparum 3D7), Q8I465; assay: as above; details: remark: other sources report otherwise
T2 chain: B1 chain

| Binder | binding [1] | binding [2] |
| --- | --- | --- |
| B1 | binds | – |
| B2 | – | no binding |

No constants are given. Whether binding was seen depends on the method and setting. In cells and extracts the contact can be indirect. These calls come from enrichment with a bait or labelling near it, and not all partners need be listed. For some assays here: No binding means not detected with the bait. Sequences can lack the tags named with a protein.
